The results in this text go back to the supplement of paper PMC4635364.

Experiment [1] has as its system ReNCell VM. As to the kind of experiment: neuronal differentiation score (DCX+ cell fraction vs untreated, manual image score) (score (-3 to 3)); higher = more neuronal differentiation. Particulars: 2 uM, 2 weeks.
Experiment [2] relates to ReNCell VM. Kind of experiment: dopaminergic neuron differentiation score (TH+ cell fraction vs untreated, manual image score) (score (0 to 3)); higher = more TH+ dopaminergic neuron differentiation. Particulars: 2 uM, 4 weeks, BDNF 10 ng/ml + GDNF 10 ng/ml.

The structures appear in SMILES notation. Structures can show the parent of a compound that is named as a salt. This is one part of the list. Single values are uncertain here, since repeats match poorly.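 Cells: ReNCell VM human fetal ventral-midbrain neural progenitors, differentiated mitogen-free. Blinded raters compared doublecortin-stained (early neurons) or tyrosine hydroxylase-stained (dopaminergic neurons) images with untreated wells, where 0 means no change. After repeats and both raters were averaged, compounds scoring 2 or above became hits for retesting.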 *1 amine or outer side, *2 acyl side, *3 side chain or, on linkers, in order; H or OH if unused. Where a SMILES comes first, the peptide text is derived from it. Bridges are numbered along the chain shown (N, C = ends). Roman numbers before positions name the chains, in order. [ ]: non-standard residue; d: D form. Actinocin(9to1) = Cc1c2oc3c(C)ccc(C(=O)[*:1])c3nc-2c(C(=O)[*:2])c(N)c1=O; NMeV = CN[C@H](C(=O)O)C(C)C; Sar = CNCC(=O)O

As to `OC(CCN1CCCC1)(c1ccccc1)C1CCCCC1` (configuration not stated), the neuronal differentiation score in experiment [1] (library: Spectrum) is inactive: 0. Besides, the “dopaminergic neuron differentiation score” value in experiment [2] (library: Spectrum) was inactive: 1.

With `Cc1cn(C2C=CC(CO)O2)c(=O)[nH]c1=O` (configuration not stated) [2',3'-didehydro-3'-deoxythymidine], the neuronal differentiation score in experiment [1] (library: LOPAC) was inactive: 0. Further, in experiment [2] (library: LOPAC), the “dopaminergic neuron differentiation score” value was inactive: 0.

Turning to `CCc1nc(N)nc(N)c1-c1ccc(Cl)cc1`, in experiment [1] (library: Spectrum), the neuronal differentiation score was inactive: 0. In experiment [2] (library: Spectrum), the “dopaminergic neuron differentiation score” value was inactive: 0.

Take `Cc1c(NC(C)C)c(=O)n(-c2ccccc2)n1C`: the neuronal differentiation score in experiment [1] (library: Spectrum) is inactive: 0. In addition, in experiment [2] (library: Spectrum), the “dopaminergic neuron differentiation score” value is inactive: 0.

For the compound `CCOC(=O)[C@H](CCc1ccccc1)N[C@@H](C)C(=O)N1[C@H](C(=O)O)C[C@@H]2CCC[C@@H]21` [Ramipril], the neuronal differentiation score in experiment [1] (library: Prestwick) was inactive: 0. Moreover, in experiment [2] (library: Prestwick), the “dopaminergic neuron differentiation score” value is inactive: 0.

Take `Cc1ccc(C(=O)Nc2ccc(S(=O)(=O)O)c3cc(S(=O)(=O)O)cc(S(=O)(=O)O)c23)cc1NC(=O)c1cccc(NC(=O)Nc2cccc(C(=O)Nc3cc(C(=O)Nc4ccc(S(=O)(=O)O)c5cc(S(=O)(=O)O)cc(S(=O)(=O)O)c45)ccc3C)c2)c1` [Suramin hexasodium salt]: the neuronal differentiation score in experiment [1] (library: Tocriscreen) is inactive: 0. Further, in experiment [2] (library: Tocriscreen), the “dopaminergic neuron differentiation score” value was inactive: 0.

Regarding `NCCC1CCCC(CCN)N1` (configuration not stated) [MDL 26,630 trihydrochloride], the neuronal differentiation score in experiment [1] (library: LOPAC) was inactive: 0. Moreover, the “dopaminergic neuron differentiation score” value in experiment [2] (library: LOPAC) is inactive: 0.

With `Cc1c2oc3c(C)ccc(C(=O)N[C@@H]4C(=O)N[C@H](C(C)C)C(=O)N5CCC[C@H]5C(=O)N(C)CC(=O)N(C)[C@@H](C(C)C)C(=O)O[C@@H]4C)c3nc-2c(C(=O)N[C@@H]2C(=O)N[C@H](C(C)C)C(=O)N3CCC[C@H]3C(=O)N(C)CC(=O)N(C)[C@@H](C(C)C)C(=O)O[C@@H]2C)c(N)c1=O` (I: T[dV]P[Sar][NMeV] / II: T[dV]P[Sar][NMeV]; ester I:1-I:C, II:1-II:C; linker I:N-II:N via Actinocin(9to1)), in experiment [1] (library: Spectrum), the neuronal differentiation score was inactive: 0. Further, in experiment [2] (library: Spectrum), the “dopaminergic neuron differentiation score” value was inactive: 0.

As to `C[C@H](Cc1ccc(O)c(O)c1)[C@@H](C)Cc1ccc(O)c(O)c1`, in experiment [1] (library: LOPAC), the neuronal differentiation score is inactive: 0. In addition, in experiment [2] (library: LOPAC), the “dopaminergic neuron differentiation score” value is inactive: 0.

Consider `COC(=O)C1=C(C)NC(C)=C(C(=O)OC)C1c1ccccc1[N+](=O)[O-]`, for which the neuronal differentiation score in experiment [1] (library: Spectrum) was inactive: 1. The “dopaminergic neuron differentiation score” value in experiment [2] (library: Spectrum) was inactive: 0.

Take `CCCCOc1ccc(OCCCN2CCOCC2)cc1` [Pramoxine hydrochloride]: the neuronal differentiation score in experiment [1] (library: Prestwick) is inactive: 0. In experiment [2] (library: Prestwick), the “dopaminergic neuron differentiation score” value was inactive: 0.

Regarding `C=CC1=C(C)c2cc3[nH]c(cc4nc(cc5[nH]c(cc1n2)c(C)c5CCC(=O)O)C(CCC(=O)O)=C4C)c(C)c3C=C` [Protoporphyrin IX disodium], the neuronal differentiation score in experiment [1] (library: LOPAC) was inactive: 0. The “dopaminergic neuron differentiation score” value in experiment [2] (library: LOPAC) is inactive: 0.

As for `CC1(C)CCC(NC(=O)[C@@H](N)CCC(=O)O)CC1`, in experiment [1] (library: LOPAC), the neuronal differentiation score was inactive: 0. In addition, the “dopaminergic neuron differentiation score” value in experiment [2] (library: LOPAC) was inactive: 0.

As to `COC(=O)Nc1nc2cc(C(=O)c3ccccc3)ccc2[nH]1`, in experiment [1] (library: Spectrum), the neuronal differentiation score is inactive: 0. Moreover, the “dopaminergic neuron differentiation score” value in experiment [2] (library: Spectrum) was inactive: 0.

`CN1CC(=O)NC1=N`: the neuronal differentiation score in experiment [1] (library: Spectrum) is inactive: 0. Besides, the “dopaminergic neuron differentiation score” value in experiment [2] (library: Spectrum) was inactive: 0.

In the case of `CC1(C)CCC(C)(C)c2cc(C(=O)Nc3ccc(C(=O)O)cc3)ccc21`, the neuronal differentiation score in experiment [1] (library: Tocriscreen) was inactive: 0. Moreover, the “dopaminergic neuron differentiation score” value in experiment [2] (library: Tocriscreen) was inactive: 0.

Consider `CC(=O)[C@H]1CC[C@H]2[C@@H]3CC=C4C[C@@H](O)CC[C@]4(C)[C@H]3CC[C@]12C`, for which the neuronal differentiation score in experiment [1] (library: Spectrum) was inactive: 0. For the same compound, the “dopaminergic neuron differentiation score” value in experiment [2] (library: Spectrum) was inactive: 0.

In the case of `CCCn1c(=O)[nH]c(=O)c2[nH]cnc21` [3-n-Propylxanthine], in experiment [1] (library: LOPAC), the neuronal differentiation score is inactive: 0. Moreover, the “dopaminergic neuron differentiation score” value in experiment [2] (library: LOPAC) was inactive: 0.

For `CCCCCCCCCCCCCCCC(=O)NCCO`, the neuronal differentiation score in experiment [1] (library: Spectrum) was inactive: 0. Moreover, the “dopaminergic neuron differentiation score” value in experiment [2] (library: Spectrum) was inactive: 0.

In the case of `COc1c2c(c(OC)c3c(=O)c4ccccc4[nH]c13)OCO2` [Xanthevodine], the neuronal differentiation score in experiment [1] (library: Phytochemical) was inactive: 0. Moreover, the “dopaminergic neuron differentiation score” value in experiment [2] (library: Phytochemical) was inactive: 0.

As for `COc1ccccc1N1CCN(CCN2C(=O)c3ccccc3C(C)(C)C2=O)CC1` [ARC 239 dihydrochloride], the neuronal differentiation score in experiment [1] (library: Tocriscreen) is inactive: 0. In addition, the “dopaminergic neuron differentiation score” value in experiment [2] (library: Tocriscreen) was inactive: 0.

Take `C=C(C)[C@@H]1CC=C(C(=O)O)CC1` [(-)-Perillic acid]: the neuronal differentiation score in experiment [1] (library: LOPAC) was inactive: 0. Besides, the “dopaminergic neuron differentiation score” value in experiment [2] (library: LOPAC) is inactive: 0.

With `C#Cc1ccc2c(c1)C(=O)N(C)Cc1c(C(=O)OCCCOC(=O)c3ncn4c3CN(C)C(=O)c3cc(C#C)ccc3-4)ncn1-2` [Xli 093 hydrate], the neuronal differentiation score in experiment [1] (library: LOPAC) was inactive: 0. Also, in experiment [2] (library: LOPAC), the “dopaminergic neuron differentiation score” value is inactive: 0.

`O=C(O)c1cc(=O)c2ccccc2o1`: the neuronal differentiation score in experiment [1] (library: Spectrum) is inactive: 0. In experiment [2] (library: Spectrum), the “dopaminergic neuron differentiation score” value was inactive: 0.

As for `C=CCc1ccccc1OCC(O)CNC(C)C` (configuration not stated), in experiment [1] (library: Spectrum), the neuronal differentiation score was inactive: 0. Also, the “dopaminergic neuron differentiation score” value in experiment [2] (library: Spectrum) was inactive: 0.

On to `CN(Cc1cc(Br)cc(Br)c1N)C1CCCCC1` [Bromhexine hydrochloride], for which, in experiment [1] (library: Prestwick), the neuronal differentiation score is inactive: 0. In addition, the “dopaminergic neuron differentiation score” value in experiment [2] (library: Prestwick) was inactive: 0.

Consider `Cc1cc(C)c(NC(=O)C[C@H](CC(=O)O)c2cccc3ccccc23)c(C(=O)N2CCC3(CCCC3)CC2)c1`, for which, in experiment [1] (library: LOPAC), the neuronal differentiation score was inactive: 0. In experiment [2] (library: LOPAC), the “dopaminergic neuron differentiation score” value is inactive: 0.

For `CN1C(=O)CC[C@H]1c1cccnc1`, in experiment [1] (library: Spectrum), the neuronal differentiation score was inactive: 0. In experiment [2] (library: Spectrum), the “dopaminergic neuron differentiation score” value was inactive: 0.

On to `N[C@@H](Cc1c[nH]c2ccc(O)cc12)C(=O)O` [5-Hydroxy-L-tryptophan], for which the neuronal differentiation score in experiment [1] (library: LOPAC) is inactive: 0. Also, the “dopaminergic neuron differentiation score” value in experiment [2] (library: LOPAC) was inactive: 0.

Turning to `CC(C)[C@H](NC(=O)[C@H](CC(=O)O)NC(=O)[C@H](CCCCN)NC(=O)[C@@H](N)CCCN=C(N)N)C(=O)N[C@@H](Cc1ccc(O)cc1)C(=O)O` (H-RKDVY-OH), the neuronal differentiation score in experiment [1] (library: Spectrum) is inactive: 0. In experiment [2] (library: Spectrum), the “dopaminergic neuron differentiation score” value was inactive: 0.

Take `C#C[C@]1(O)CC[C@H]2[C@@H]3CCC4=CC(=O)CC[C@@H]4[C@H]3CC[C@@]21CC`: in experiment [1] (library: Spectrum), the neuronal differentiation score was inactive: 0. Besides, the “dopaminergic neuron differentiation score” value in experiment [2] (library: Spectrum) is inactive: 0.
